About 1,100 (79%) of roughly 1,400 compounds were called active.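 The calls were made as follows: active = fitted half-maximal concentration of a falling signal no higher than twice the top valid dose in every test run; inconclusive = runs disagree, or flat partial inhibition, or poor fit; inactive = every run inactive: flat, wrong direction, or potency beyond limit.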 So high a share suggests a set chosen from earlier hits. Inconclusive means that the source gave no clear call.
Experiment: inhibitors of clade B AD8 Env fusion, dose response, cell-based, cherry-pick (AID 652062)
Settings: HeLa-AD8 Env / CEM-CCR5 cell fusion, luciferase; at 35 µM (top of the series) unless noted

| Compound | activity change, negative = inhibition |
| --- | --- |
| Nc1c(S(=O)(=O)c2cccs2)c2nc3ccccc3nc2n1CCc1ccccc1 | inconclusive: -18.4% [at 8 µM] |
| CC1CCCC(C)N1CCCNC(=O)c1nn(C)c2c1CSc1ccccc1-2 (stereo not given) | inconclusive: -58.5% |
| CCN(CC)c1ccc(/C=N/N2C(C)CCCC2C)c(O)c1 (stereo not given) | inconclusive: -58.2% |
| O=C(Nc1cccc(F)c1)N[C@@H]1CC[C@H](CCNS(=O)(=O)c2cccc(Cl)c2)O[C@@H]1CO | inconclusive: -26.6% |
| COC(=O)Cn1cnc2c(Cl)nc(F)nc21 | inconclusive: -43.6% |
| O=C(NCc1ccccc1)c1ccc(C(=O)NCc2ccccc2)cc1 | inconclusive: -36.6% |
| COC(=O)C[C@H]1C=C[C@H](NC(=O)c2ccccn2)[C@@H](CO)O1 | inconclusive: -52.2% |
| Nc1ccn(C2OC(COC(=O)C34CC5CC(CC(C5)C3)C4)C(O)C2O)c(=O)n1 (stereo not given) | inconclusive: -60.8% |
| CC(OC(=O)c1ccc(NC(=O)CC#N)cc1)C(=O)NCCC1=CCCCC1 (stereo not given) | inconclusive: -59.2% |
| COc1ccc(CCNC(=O)C2CCCN(Cc3nc(-c4cccc(Cl)c4)oc3C)C2)cc1OC (stereo not given) | inconclusive: -48.8% |

— PubChem BioAssay AID652062 (Broad Institute, 2013)
